Measurements as given in paper PMC7819943, “Rice protein-binding microarrays: a tool to detect cis-acting elements near promoter regions in rice”.
The other results are listed elsewhere or left out.

biological target: T1, OsSMF1 (Oryza sativa, UniProt Q6ZLB0 1-436); test: protein-binding microarray (RPBM); PBS, 2% BSA, 51.3 ng/ul salmon testes DNA, 50 uM zinc acetate, 200 nM TF, 25 C, 1 h; high values mean tight binding; settings: protein: recombinant; tags: N-terminal polyhistidine and DsRed monomer fusion (pET32a); chain copies: 2; label: CyDye5-dUTP incorporated in the synthesized complementary strand; 3' TTTTT single-stranded linker to array surface; dsDNA, one strand shown
T1 sequence: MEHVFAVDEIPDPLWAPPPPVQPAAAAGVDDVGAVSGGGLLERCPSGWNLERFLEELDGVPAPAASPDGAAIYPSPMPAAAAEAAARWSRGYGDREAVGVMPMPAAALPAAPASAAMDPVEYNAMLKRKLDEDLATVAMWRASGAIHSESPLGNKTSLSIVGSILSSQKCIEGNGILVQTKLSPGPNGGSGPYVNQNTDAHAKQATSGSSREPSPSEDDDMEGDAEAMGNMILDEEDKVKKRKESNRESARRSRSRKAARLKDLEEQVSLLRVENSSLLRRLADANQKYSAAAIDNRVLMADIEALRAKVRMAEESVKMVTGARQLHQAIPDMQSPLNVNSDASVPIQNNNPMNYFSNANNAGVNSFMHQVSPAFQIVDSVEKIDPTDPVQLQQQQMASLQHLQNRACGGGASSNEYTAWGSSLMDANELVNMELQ
Summary of the method: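 For the binding signal, per-feature fluorescence intensity was read in arbitrary units on an Axon 4000B scanner. Before scanning, a 2% BSA-blocked custom Agilent array made double-stranded with Cy5-dUTP was washed after 1 h at 25 °C with 200 nM protein and 50 µM zinc acetate. The proteins were Ni–NTA-purified transcription factors with N-terminal polyhistidine and DsRed fusions, expressed in E. coli BL21-CodonPlus.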

Q: How did the binding signal turn out when “GAGAGAGAGGAAGAGTGGAAGAGTATGACACGTGGGTCCCCGGAGTCACCTAGTGCAG” was run?
A: 7920 fluorescence intensity (a.u.)

Q: Which binding signal does the source give for “TTGTAGCAAGATCCCAATCATAATAGATGATGGCAAATGCCGGAGTCACCTAGTGCAG” here?
A: 17100 fluorescence intensity (a.u.)

Q: Which binding signal does the source give for “TTTAGTAACGGGCCGAACTAGTCACGCGTGCTGGCCACACCGGAGTCACCTAGTGCAG” here?
A: 4830 fluorescence intensity (a.u.)

Q: Which binding signal does the source give for “CTTAATTAATATATATTTGTGAAGACCTAACTTCGAGTCCCGGAGTCACCTAGTGCAG” here?
A: 3460 fluorescence intensity (a.u.)

Q: With “GTTCCTGAAAGAAAACAAAACAAAAGAGCCACCTGGAACGCGGAGTCACCTAGTGCAG” as the sequence, how does the binding signal read?
A: 3190 fluorescence intensity (a.u.)

Q: “AATAGGGAAGCCCCACGTGTGTTAATTGTCATCGATTTCCCGGAGTCACCTAGTGCAG” was tested. Which binding signal did it give?
A: 7780 fluorescence intensity (a.u.)

Q: How did the binding signal turn out when “AGTTACCCCTACAAGTTAAGGATGCTGTCATCTCATCCTTCGGAGTCACCTAGTGCAG” was run?
A: 3390 fluorescence intensity (a.u.)

Q: How did the binding signal turn out when “GGCATTGATATCTGCTGGCCCATTCGGTTGACGGGTGACTCGGAGTCACCTAGTGCAG” was run?
A: 3150 fluorescence intensity (a.u.)

Q: How did the binding signal turn out when “GTCCCTCGCGCCGTCACCACCTGCTCTGTCTCCTCTCCTTCGGAGTCACCTAGTGCAG” was run?
A: 4060 fluorescence intensity (a.u.)

Q: With “TTTGTGAAGTGATATATTACATATTAACCTAGAAGTCCACCGGAGTCACCTAGTGCAG” as the sequence, how does the binding signal read?
A: 26800 fluorescence intensity (a.u.)

Q: How did the binding signal turn out when “CCTTGTTGATATATTTTAAGGTGTATGGTTTCTATTTTAACGGAGTCACCTAGTGCAG” was run?
A: 3650 fluorescence intensity (a.u.)

Q: “TTAGATCGGGGAATAAGGTGGTAACAGGGCAGTGCGGTCCCGGAGTCACCTAGTGCAG” was tested. Which binding signal did it give?
A: 3500 fluorescence intensity (a.u.)

Q: Which binding signal does the source give for “CTCGTCCGCGACCACGACCACGACCACGACACGACGAGCTCGGAGTCACCTAGTGCAG” here?
A: 3320 fluorescence intensity (a.u.)

Q: “CTGTAATTTATTTTAATATCATCAAGACACATCAGCAACACGGAGTCACCTAGTGCAG” was tested. Which binding signal did it give?
A: 9520 fluorescence intensity (a.u.)

Q: For “TTATTAGCAACCACCGTCACATATAAATTAATATGTGCCGCGGAGTCACCTAGTGCAG”, which binding signal is on record?
A: 3710 fluorescence intensity (a.u.)

Q: “TAAACGCAAATTCTATATCACAACCACGTAAGTTTAGTAGCGGAGTCACCTAGTGCAG” was tested. Which binding signal did it give?
A: 3870 fluorescence intensity (a.u.)

Q: How did the binding signal turn out when “CATCTCCCTCCACCTCGACCCGCCGCCGGTCTCCTCTTGTCGGAGTCACCTAGTGCAG” was run?
A: 4200 fluorescence intensity (a.u.)

Q: “ATTCTTGAATGGCTGCTAGCTTCTCCATCAAAAGAGGCCACGGAGTCACCTAGTGCAG” was tested. Which binding signal did it give?
A: 24600 fluorescence intensity (a.u.)

Q: Which binding signal does the source give for “GTCCAGCTCGGCCGCGGCGGCTACGTCCACCGCCGTCGCCCGGAGTCACCTAGTGCAG” here?
A: 19700 fluorescence intensity (a.u.)

Q: “ATATTATGAAATGGCACGTAGCATAGTGGTTGCAGTGATCCGGAGTCACCTAGTGCAG” was tested. Which binding signal did it give?
A: 4620 fluorescence intensity (a.u.)

Q: For “TTGGTTTTGGAAGTTGAGTAACGCGTCATTTAGGTATTGCCGGAGTCACCTAGTGCAG”, which binding signal is on record?
A: 5530 fluorescence intensity (a.u.)

Q: “TGTGCACGTCAGTCTGACGCCTCAATCCTTCCCGTGCACACGGAGTCACCTAGTGCAG” was tested. Which binding signal did it give?
A: 8700 fluorescence intensity (a.u.)

Q: “CCTCCACGATTCGCTCCAGCGCCATGTGACTAGACCGAGCCGGAGTCACCTAGTGCAG” was tested. Which binding signal did it give?
A: 5700 fluorescence intensity (a.u.)

Q: Which binding signal does the source give for “GCAGATAATTGACTCCCCTGGCATTGACATGGCCTTCCCACGGAGTCACCTAGTGCAG” here?
A: 6140 fluorescence intensity (a.u.)

Q: Which binding signal does the source give for “TGATGGATTAGAGTTTACATTGCGTGGATGCAAGCATAGACGGAGTCACCTAGTGCAG” here?
A: 3640 fluorescence intensity (a.u.)

Q: How did the binding signal turn out when “GGCAACAACGGCCTCCACCGCCATCACTCCGGCACCCTCACGGAGTCACCTAGTGCAG” was run?
A: 52200 fluorescence intensity (a.u.)

Q: With “TCCTTCCTACCCACGGCCGACTCCCCTCCTCGTCACCACGCGGAGTCACCTAGTGCAG” as the sequence, how does the binding signal read?
A: 4400 fluorescence intensity (a.u.)

Q: For “CAAAGCGCATCTGAGGAGGTAGGCCCCACCAATGACATGTCGGAGTCACCTAGTGCAG”, which binding signal is on record?
A: 3650 fluorescence intensity (a.u.)

Q: How did the binding signal turn out when “CTCCCAGCCTTTTGCTGATCGGTGGGCCTAGTTGCCCGAGCGGAGTCACCTAGTGCAG” was run?
A: 15500 fluorescence intensity (a.u.)

Q: How did the binding signal turn out when “AGCAGCAGAGCGTGCCACACTGCCACGCACACAAGCACAACGGAGTCACCTAGTGCAG” was run?
A: 6160 fluorescence intensity (a.u.)

Q: For “CTTGTATAGCTGAGCCGTGGCAAGCAGACCCAACACCTGACGGAGTCACCTAGTGCAG”, which binding signal is on record?
A: 3980 fluorescence intensity (a.u.)

Q: “GGGCGTCGGTGATGTGCCAGTGGAAGACATTGAGCTTGTTCGGAGTCACCTAGTGCAG” was tested. Which binding signal did it give?
A: 3360 fluorescence intensity (a.u.)

Q: “CCCAGCCACCGCCGGCGAAATCCCGGAAGACGTCACACCACGGAGTCACCTAGTGCAG” was tested. Which binding signal did it give?
A: 5090 fluorescence intensity (a.u.)

Q: “AATACCTGATGTGACACGCCAAAACTTTACACCCCTGGATCGGAGTCACCTAGTGCAG” was tested. Which binding signal did it give?
A: 4210 fluorescence intensity (a.u.)

Q: Which binding signal does the source give for “CACTCTCTCTCCCCATGCCACCAATCTTCGAACGGGCTGACGGAGTCACCTAGTGCAG” here?
A: 3490 fluorescence intensity (a.u.)

Q: With “TAACTGATTTGACTCGTGCGTACACGCATCGCAGTGACAACGGAGTCACCTAGTGCAG” as the sequence, how does the binding signal read?
A: 3430 fluorescence intensity (a.u.)

Q: With “AGGTCCCAAATTGACACATCCCCTCTAGAATCCTACGTATCGGAGTCACCTAGTGCAG” as the sequence, how does the binding signal read?
A: 3150 fluorescence intensity (a.u.)

Q: Which binding signal does the source give for “ATTCGTGCCGGGACACGTGTCACGCAGGGAAGTGAAGTCCCGGAGTCACCTAGTGCAG” here?
A: 14800 fluorescence intensity (a.u.)

Q: With “GGTTGAACTGAATCATATCAAAGCCAGGTCAACACAGAAACGGAGTCACCTAGTGCAG” as the sequence, how does the binding signal read?
A: 3810 fluorescence intensity (a.u.)

Q: For “AGAAGCGCGCCGAGGAGGCCCGCTCGTTCAACCGCGCCGCCGGAGTCACCTAGTGCAG”, which binding signal is on record?
A: 65500 fluorescence intensity (a.u.)

Q: Which binding signal does the source give for “TTAGATGTGAAAATTTCGGCCACGTCTCTCCCTATACATACGGAGTCACCTAGTGCAG” here?
A: 4800 fluorescence intensity (a.u.)

Q: With “CCCCACAGCGCAGTGTCCCACGCGGCCAGCACGCACTCTCCGGAGTCACCTAGTGCAG” as the sequence, how does the binding signal read?
A: 3260 fluorescence intensity (a.u.)
